Experimental data: paper PMC7819943, “Rice protein-binding microarrays: a tool to detect cis-acting elements near promoter regions in rice”
The other results are listed elsewhere or left out.

By UniProt entry, the sequences of proteins in these tests, tags left out.
UniProt Q0JBA9, entry or part of it: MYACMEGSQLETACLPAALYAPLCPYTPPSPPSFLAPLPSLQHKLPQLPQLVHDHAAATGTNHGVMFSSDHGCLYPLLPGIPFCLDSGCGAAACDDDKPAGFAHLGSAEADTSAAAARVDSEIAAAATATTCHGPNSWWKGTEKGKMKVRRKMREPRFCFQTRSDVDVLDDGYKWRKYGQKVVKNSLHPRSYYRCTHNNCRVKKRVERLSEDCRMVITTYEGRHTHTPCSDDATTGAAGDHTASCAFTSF

Biological target: OsWRKY34 (Oryza sativa, UniProt Q0JBA9 1-250)
Assay: protein-binding microarray (RPBM); PBS, 2% BSA, 51.3 ng/ul salmon testes DNA, 50 uM zinc acetate, 200 nM TF, 25 C, 1 h; high values mean tight binding
Conditions: protein: recombinant; tags: N-terminal polyhistidine and DsRed monomer fusion (pET32a); label: CyDye5-dUTP incorporated in the synthesized complementary strand; 3' TTTTT single-stranded linker to array surface; dsDNA, one strand shown
Method in brief: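 Binding signal is defined as the fluorescence intensity of each feature in arbitrary units, read on an Axon 4000B scanner. Transcription factors with N-terminal polyhistidine and DsRed fusions came from E. coli BL21-CodonPlus and were purified on Ni–NTA. They were incubated at 200 nM for 1 h at 25 °C on a custom Agilent array that had been made double-stranded with Cy5-dUTP, with 50 µM zinc acetate present, and the array was washed.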

Sequence	binding signal
GGAGGATAGAGATGCATATATTTCTCGTCATTTTCTTTCTCGGAGTCACCTAGTGCAG	8060 fluorescence intensity (a.u.)
TCCCTATTCGAATTATCACTGTTCACCGCATATTCGTTTTCGGAGTCACCTAGTGCAG	9040 fluorescence intensity (a.u.)
TAACACATCTCTATATTTGATCTGCAGGTACCATCGTCTTCGGAGTCACCTAGTGCAG	9200 fluorescence intensity (a.u.)
GTTCTGTTGTCCATTTCCGGATTCTTTTGTCAAATTTAAACGGAGTCACCTAGTGCAG	10900 fluorescence intensity (a.u.)
TTGGTACCACTTTCTCAATTTTTCATTTATTTCTCATTTCCGGAGTCACCTAGTGCAG	8540 fluorescence intensity (a.u.)
CCGCATGTGACCACCGGTGTTGTTGTTGGTCACATCTCTACGGAGTCACCTAGTGCAG	8140 fluorescence intensity (a.u.)
AATGCTCATTTTCCACTACTGTCGATGTGATTTGGTTCTGCGGAGTCACCTAGTGCAG	8700 fluorescence intensity (a.u.)
CCGCGCCACCACCACCAGCCTCGTCAATTCTGAGGGCGCCCGGAGTCACCTAGTGCAG	9200 fluorescence intensity (a.u.)
GCTATTATTTTTTTGGCTTTTTTTTTCTTGTGACTTTGTTCGGAGTCACCTAGTGCAG	11300 fluorescence intensity (a.u.)
CTGTTAACCACACCTTTTCTATTCATGACACTGGTACTCCCGGAGTCACCTAGTGCAG	8050 fluorescence intensity (a.u.)
ACTTTATTATCTACAGTACTTTAAGCACAACTTTTCGTTTCGGAGTCACCTAGTGCAG	8200 fluorescence intensity (a.u.)
GGGATTTTGAGGGAGGGCTGAATGCGATGTACTGAAGGGTCGGAGTCACCTAGTGCAG	13300 fluorescence intensity (a.u.)
CGCCTCGACCCTGCGCCGGCTCCGGCCCCGCCGAAGTCCACGGAGTCACCTAGTGCAG	10400 fluorescence intensity (a.u.)
CTTTCCTTTCTTTGTTTTTTATCTTTGTTTTCTTTCTTCCCGGAGTCACCTAGTGCAG	11800 fluorescence intensity (a.u.)
CCCTGCGCAAGTACTTCCGTCACCAACGCTTGGCGCCACCCGGAGTCACCTAGTGCAG	9380 fluorescence intensity (a.u.)
TAATTGATCCTCGTTGTTAATACTGATAGCCTTGATGTCACGGAGTCACCTAGTGCAG	8780 fluorescence intensity (a.u.)
ATTTATCAATACCTATCGGAAGATCGGGACCTAACATCCTCGGAGTCACCTAGTGCAG	8290 fluorescence intensity (a.u.)
CAACGCCCTATTTTTTTTGGATCGGATAATTTTGGTTTTTCGGAGTCACCTAGTGCAG	8460 fluorescence intensity (a.u.)
CACCTCCGCCCTCTCTCCGGCCGTCGCCGCCGCTCTCGTGCGGAGTCACCTAGTGCAG	9050 fluorescence intensity (a.u.)
CCTCTCTGCCTCTTCTCTCTCTCTCCCTCGCTTAAACCCTCGGAGTCACCTAGTGCAG	9580 fluorescence intensity (a.u.)
TCCTAGAGTCCTGGTCCATCTTTCTTGGCTTCTTGATATGCGGAGTCACCTAGTGCAG	8170 fluorescence intensity (a.u.)

3 entries picked at random from those above, as already listed:
Sequence	binding signal
GTTCTGTTGTCCATTTCCGGATTCTTTTGTCAAATTTAAACGGAGTCACCTAGTGCAG	10900 fluorescence intensity (a.u.)
TTGGTACCACTTTCTCAATTTTTCATTTATTTCTCATTTCCGGAGTCACCTAGTGCAG	8540 fluorescence intensity (a.u.)
CCCTGCGCAAGTACTTCCGTCACCAACGCTTGGCGCCACCCGGAGTCACCTAGTGCAG	9380 fluorescence intensity (a.u.)

Further entries:

Sequence	binding signal
TCCCCATACCTTTGATCGAATCATCTCCTTGAAACGCAAACGGAGTCACCTAGTGCAG	8840 fluorescence intensity (a.u.)
GGAGGCAGAGGGTTGGGGACTAAAGGGAGGAGGGGAGATGCGGAGTCACCTAGTGCAG	10400 fluorescence intensity (a.u.)
TGCTATTTTAATTTTATTATTGTTATATACGTTTTAGTTACGGAGTCACCTAGTGCAG	9380 fluorescence intensity (a.u.)
TGAACTACTGCTGCTGCTACTCCATGTCATTTTCTCCCATCGGAGTCACCTAGTGCAG	9050 fluorescence intensity (a.u.)
ACAAGCCTGAAACAATAGTCTTTACATGCCTTTATTTGTCCGGAGTCACCTAGTGCAG	10700 fluorescence intensity (a.u.)
TAGTTTTCTCATGTTCATCAATTTAAATACCTAACAATACCGGAGTCACCTAGTGCAG	8180 fluorescence intensity (a.u.)
CATCTTCTCCAATTGATGTGGCTCTCTCATTTGACCATTTCGGAGTCACCTAGTGCAG	10400 fluorescence intensity (a.u.)
CCGGTTTTGATTGGCTTCTTCGCAACCATAGTTGAATATCCGGAGTCACCTAGTGCAG	8450 fluorescence intensity (a.u.)
CAGATGTTCTTGGTCTTCTTAATATATGTCACCGTGACTCCGGAGTCACCTAGTGCAG	8620 fluorescence intensity (a.u.)
TCTCACACTTCGTCGCCGGCTGCTTCCGCTCTGAATCGCCCGGAGTCACCTAGTGCAG	8040 fluorescence intensity (a.u.)
TTGTTATGATGATTGGTTAGTTCTTGATTCCTTGATTATTCGGAGTCACCTAGTGCAG	9610 fluorescence intensity (a.u.)
TCGCTGTGAGTGGAGGAGGAGGAGGAAGGGGAGGAGGATGCGGAGTCACCTAGTGCAG	8630 fluorescence intensity (a.u.)
TCATATTTTTTTCTCTTGGTTTTTAATATGTACGTATACACGGAGTCACCTAGTGCAG	9930 fluorescence intensity (a.u.)
ATCTTACTGCCAGCTTCACCGTTCACCGCGTTCAACCGCACGGAGTCACCTAGTGCAG	8790 fluorescence intensity (a.u.)
TTTGCCACGCGTCGACCGCGCCGTGTCTTTGCCGCGGATGCGGAGTCACCTAGTGCAG	10200 fluorescence intensity (a.u.)
GTCCCATGCTGCGACCGCACCCAAAACTAGTAGCCGTCTCCGGAGTCACCTAGTGCAG	9350 fluorescence intensity (a.u.)
CAGGGGCGGCGGCGTCTTCATCGTCAATTATGGGGTAATGCGGAGTCACCTAGTGCAG	8930 fluorescence intensity (a.u.)
ATTCTTTTGTATATAGTTCTTGATACAATTCCGTATTTTTCGGAGTCACCTAGTGCAG	8720 fluorescence intensity (a.u.)
ACAAAAGGTACAATCAGTGCTATCCTGTACGCGGAACAATCGGAGTCACCTAGTGCAG	8110 fluorescence intensity (a.u.)
ATCAATGTTTGCGGCCAATCCCGTCTCCTTTTCGCTTATTCGGAGTCACCTAGTGCAG	11000 fluorescence intensity (a.u.)
ACACACCATCGTACACCATATTTTACTGGCTATCATTTACCGGAGTCACCTAGTGCAG	9030 fluorescence intensity (a.u.)
